Experimental data reported in patent publication US7531360B2, “Method of dechlorination treatment of flowing water, in particular upstream of a biological pollution detector” (Societe des Eaux de Marseille, priority 2005, dated 2009).

Test: Effect of excess ascorbic acid on pH, dissolved oxygen and residual chlorine in artificially chlorinated distributed water
Source text: In order to ensure effective dechlorination, it is advantageous to control the system using a chlorine analyzer (a metering pump controlled by a chlorine analyzer). However, to avoid this metering pump control, it is possible to work with a slight excess of ascorbic acid. […] Experiments were thus carried out in this area on artificially chlorinated distributed water to verify these effects.
It should be noted that the pH still remains in a range favorable to the survival of trout fingerlings regardless of the initial pH of the distributed water.

Compound: O=C1O[C@H]([C@@H](O)CO)C(O)=C1O [ascorbic acid, L-ascorbic acid]
- Maximum decrease in pH of treated water (ascorbic acid concentration double with respect to stoichiometry): ≤ 10%
- Maximum decrease in dissolved oxygen (excess ascorbic acid, same conditions): ≤ 10%
